Test results taken from US9493540B2, “Ecdysone receptor/invertebrate retinoid X receptor-based inducible gene expression system” (Intrexon Corporation, priority 2001, dated 2016).
At least one compound was matched to its structure with a doubt left.

Test system: GAL4CfEcR-DEF/VP16LmUSP-EF (switch 1.18)
Test: Effect of a second ligand on transactivation of the gene switch with pFRLuc in NIH3T3 cells
Format: cell-based, Choristoneura fumiferana
Details: 1 μM 9-Cis-retinoic acid added in addition to non-steroid (1 μM or less), 48 hours
Experimental: Transfections: DNAs corresponding to the various switch constructs outlined in Example 1, specifically switches 1.1 through 1.8, were transfected into mouse NIH3T3 cells (ATCC) as follows. […] For 12-well plates, 4 μl of Superfect™ was mixed with 100 μl of growth medium. […] The cells were harvested and reporter activity was assayed. […] Ligands: The steroidal ligand Ponasterone A (PonA) was purchased from Sigma Chemical Company. […] Reporter Assays: Cells were harvested 48 hours after adding ligands. […] Twenty μl of lysate were assayed. […] In addition, LmUSP worked better than vertebrate RXR as a CfEcR partner. In particular, both the sensitivity, i.e. the concentration of ligand required for transactivation, and the magnitude of transactivation were increased with LmUSP compared to vertebrate RXR. […]
In particular, Applicants have determined the effect of 9-cis-retinoic acid on the transactivation potential of the GAL4CfEcR-DEF/VP16LmUSP-EF (switch 1.18) gene switch along with pFRLuc in NIH3T3 cells in the presence of non-steroid (GSE) for 48 hours.
Briefly, GAL4CfEcR-DEF, pFRLuc and VP16LmUSP-EF were transfected into NIH3T3 cells and the transfected cells were treated with 0, 0.04, 0.2, 1, 5 and 25 μM non-steroidal ligand (GSE) and 0, 1, 5 and 25 μM 9-Cis-retinoic acid (Sigma Chemical Company). The reporter activity was measured at 48 hours after adding ligands.

SMILES: CC1=C(/C=C/C(C)=C\C=C\C(C)=C\C(=O)O)C(C)(C)CCC1 [9-Cis-retinoic acid, 9-cis-retinoic acid]
- induction of reporter activity: induction is greatly increased
